Measurements from the supplement of paper PMC10849652.
Some of the results follow.

By UniProt entry, the sequences of proteins in these tests, tags left out. Where a name states a change or a piece, a line headed by the entry shows the natural chain unless it says otherwise.
UniProt Q96PV6, whole entry, looked up: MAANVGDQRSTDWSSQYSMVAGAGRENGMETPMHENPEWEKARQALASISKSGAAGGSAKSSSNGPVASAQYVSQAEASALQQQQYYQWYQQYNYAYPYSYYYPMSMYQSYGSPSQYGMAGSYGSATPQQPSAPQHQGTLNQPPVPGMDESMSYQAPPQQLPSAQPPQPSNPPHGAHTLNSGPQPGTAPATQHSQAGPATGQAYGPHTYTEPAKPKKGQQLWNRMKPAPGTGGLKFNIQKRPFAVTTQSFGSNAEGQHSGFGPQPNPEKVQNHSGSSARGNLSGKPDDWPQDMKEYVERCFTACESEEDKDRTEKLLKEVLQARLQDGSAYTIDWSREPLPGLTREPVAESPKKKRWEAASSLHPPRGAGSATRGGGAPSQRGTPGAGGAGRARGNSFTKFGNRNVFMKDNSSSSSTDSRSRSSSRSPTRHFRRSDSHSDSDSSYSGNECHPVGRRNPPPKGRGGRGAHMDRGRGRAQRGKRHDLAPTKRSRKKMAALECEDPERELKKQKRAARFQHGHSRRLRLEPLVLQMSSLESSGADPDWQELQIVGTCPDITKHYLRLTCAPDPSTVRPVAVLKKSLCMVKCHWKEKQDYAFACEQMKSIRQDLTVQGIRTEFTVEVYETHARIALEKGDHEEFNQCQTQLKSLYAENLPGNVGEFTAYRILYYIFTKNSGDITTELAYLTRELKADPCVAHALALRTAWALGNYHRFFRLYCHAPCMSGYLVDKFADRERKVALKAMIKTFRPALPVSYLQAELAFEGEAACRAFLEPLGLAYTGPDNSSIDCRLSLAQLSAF
UniProt Q8IWT6: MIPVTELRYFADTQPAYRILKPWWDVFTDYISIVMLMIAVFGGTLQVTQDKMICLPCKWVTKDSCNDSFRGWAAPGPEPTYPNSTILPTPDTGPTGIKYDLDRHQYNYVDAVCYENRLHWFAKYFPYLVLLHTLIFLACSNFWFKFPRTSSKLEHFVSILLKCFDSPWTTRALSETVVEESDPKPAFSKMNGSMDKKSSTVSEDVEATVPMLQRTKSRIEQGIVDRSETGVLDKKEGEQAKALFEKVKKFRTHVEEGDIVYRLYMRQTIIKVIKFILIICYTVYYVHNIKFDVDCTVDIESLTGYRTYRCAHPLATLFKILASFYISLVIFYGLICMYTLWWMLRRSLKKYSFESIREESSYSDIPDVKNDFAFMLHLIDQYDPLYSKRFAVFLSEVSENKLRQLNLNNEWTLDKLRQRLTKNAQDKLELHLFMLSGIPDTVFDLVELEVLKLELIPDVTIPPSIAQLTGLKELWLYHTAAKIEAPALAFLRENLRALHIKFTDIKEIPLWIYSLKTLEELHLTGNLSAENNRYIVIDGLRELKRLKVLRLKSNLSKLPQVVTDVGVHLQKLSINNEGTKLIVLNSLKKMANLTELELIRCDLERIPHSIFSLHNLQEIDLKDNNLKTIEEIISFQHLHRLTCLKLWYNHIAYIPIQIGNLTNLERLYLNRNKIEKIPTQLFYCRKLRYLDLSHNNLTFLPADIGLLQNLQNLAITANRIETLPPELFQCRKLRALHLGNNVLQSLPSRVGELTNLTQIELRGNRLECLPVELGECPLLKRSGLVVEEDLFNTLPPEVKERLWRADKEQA
UniProt Q6ZN17: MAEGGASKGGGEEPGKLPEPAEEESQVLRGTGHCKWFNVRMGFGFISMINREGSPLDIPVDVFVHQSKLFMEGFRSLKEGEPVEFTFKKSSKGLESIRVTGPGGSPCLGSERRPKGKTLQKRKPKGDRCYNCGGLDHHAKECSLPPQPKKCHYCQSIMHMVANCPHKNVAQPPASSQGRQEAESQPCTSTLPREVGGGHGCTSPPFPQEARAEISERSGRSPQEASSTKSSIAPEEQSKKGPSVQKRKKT
UniProt Q6UWP7: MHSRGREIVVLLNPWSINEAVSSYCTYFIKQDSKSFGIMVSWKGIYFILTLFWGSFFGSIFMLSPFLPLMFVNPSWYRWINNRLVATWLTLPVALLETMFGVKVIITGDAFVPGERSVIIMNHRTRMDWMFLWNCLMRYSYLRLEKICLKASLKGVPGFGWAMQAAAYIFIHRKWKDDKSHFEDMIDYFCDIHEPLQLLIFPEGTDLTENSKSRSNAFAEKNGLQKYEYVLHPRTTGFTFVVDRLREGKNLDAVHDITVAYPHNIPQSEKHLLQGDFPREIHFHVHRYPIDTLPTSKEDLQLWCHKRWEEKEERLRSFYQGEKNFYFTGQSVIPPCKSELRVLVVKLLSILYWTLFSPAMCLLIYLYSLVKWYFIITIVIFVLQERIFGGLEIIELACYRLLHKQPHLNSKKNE
UniProt P48059, whole entry, looked up: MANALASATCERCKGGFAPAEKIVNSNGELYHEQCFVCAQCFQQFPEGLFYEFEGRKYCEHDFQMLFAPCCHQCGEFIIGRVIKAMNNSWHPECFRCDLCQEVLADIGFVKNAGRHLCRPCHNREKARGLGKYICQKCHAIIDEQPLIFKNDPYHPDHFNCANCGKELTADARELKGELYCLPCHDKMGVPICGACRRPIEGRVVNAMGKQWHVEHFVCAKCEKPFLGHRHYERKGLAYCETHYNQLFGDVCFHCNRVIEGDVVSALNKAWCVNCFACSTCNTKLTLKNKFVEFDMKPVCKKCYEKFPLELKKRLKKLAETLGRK
UniProt Q9Y333: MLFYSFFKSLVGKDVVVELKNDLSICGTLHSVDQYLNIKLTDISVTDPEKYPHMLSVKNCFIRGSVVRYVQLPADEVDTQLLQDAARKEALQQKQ
UniProt P18858, whole entry, looked up: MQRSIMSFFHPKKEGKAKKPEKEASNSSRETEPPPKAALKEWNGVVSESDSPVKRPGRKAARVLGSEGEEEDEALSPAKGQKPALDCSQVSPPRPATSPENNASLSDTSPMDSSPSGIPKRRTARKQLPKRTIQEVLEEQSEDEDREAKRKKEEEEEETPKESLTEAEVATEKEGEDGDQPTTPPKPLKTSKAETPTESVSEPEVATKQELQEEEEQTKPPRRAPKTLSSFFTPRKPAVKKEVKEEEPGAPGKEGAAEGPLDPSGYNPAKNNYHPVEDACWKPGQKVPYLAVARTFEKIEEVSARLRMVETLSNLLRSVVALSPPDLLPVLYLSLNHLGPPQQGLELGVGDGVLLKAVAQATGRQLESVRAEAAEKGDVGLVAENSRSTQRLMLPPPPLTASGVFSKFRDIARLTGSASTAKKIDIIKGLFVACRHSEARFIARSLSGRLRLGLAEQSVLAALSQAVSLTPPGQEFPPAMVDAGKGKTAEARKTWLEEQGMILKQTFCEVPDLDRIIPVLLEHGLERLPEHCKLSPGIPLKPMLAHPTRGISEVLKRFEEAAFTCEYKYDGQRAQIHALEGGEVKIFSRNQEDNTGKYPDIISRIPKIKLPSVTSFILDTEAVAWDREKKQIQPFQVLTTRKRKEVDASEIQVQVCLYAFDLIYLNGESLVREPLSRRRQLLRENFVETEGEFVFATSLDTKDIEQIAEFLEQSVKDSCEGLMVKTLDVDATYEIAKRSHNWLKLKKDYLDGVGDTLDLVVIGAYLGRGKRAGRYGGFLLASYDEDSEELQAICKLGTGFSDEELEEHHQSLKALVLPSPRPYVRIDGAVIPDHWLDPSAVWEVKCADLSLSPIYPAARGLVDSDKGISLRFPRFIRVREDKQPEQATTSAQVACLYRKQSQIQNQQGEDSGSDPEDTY
UniProt P13796: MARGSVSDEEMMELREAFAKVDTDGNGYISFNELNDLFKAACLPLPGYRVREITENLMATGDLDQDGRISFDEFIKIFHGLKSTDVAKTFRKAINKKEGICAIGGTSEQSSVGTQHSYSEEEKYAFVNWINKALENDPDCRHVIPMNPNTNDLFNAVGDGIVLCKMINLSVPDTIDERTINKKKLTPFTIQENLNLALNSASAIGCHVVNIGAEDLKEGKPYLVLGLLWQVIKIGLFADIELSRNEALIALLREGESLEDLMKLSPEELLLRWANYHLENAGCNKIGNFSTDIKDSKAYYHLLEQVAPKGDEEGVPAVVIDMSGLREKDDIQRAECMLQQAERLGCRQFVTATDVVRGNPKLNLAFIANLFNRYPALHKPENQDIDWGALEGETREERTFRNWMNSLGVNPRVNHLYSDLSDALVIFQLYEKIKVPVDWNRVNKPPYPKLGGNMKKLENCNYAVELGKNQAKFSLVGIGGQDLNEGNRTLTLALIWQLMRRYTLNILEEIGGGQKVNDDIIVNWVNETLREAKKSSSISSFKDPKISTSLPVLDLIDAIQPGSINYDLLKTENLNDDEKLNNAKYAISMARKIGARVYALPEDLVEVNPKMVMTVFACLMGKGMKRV
UniProt Q9NT99: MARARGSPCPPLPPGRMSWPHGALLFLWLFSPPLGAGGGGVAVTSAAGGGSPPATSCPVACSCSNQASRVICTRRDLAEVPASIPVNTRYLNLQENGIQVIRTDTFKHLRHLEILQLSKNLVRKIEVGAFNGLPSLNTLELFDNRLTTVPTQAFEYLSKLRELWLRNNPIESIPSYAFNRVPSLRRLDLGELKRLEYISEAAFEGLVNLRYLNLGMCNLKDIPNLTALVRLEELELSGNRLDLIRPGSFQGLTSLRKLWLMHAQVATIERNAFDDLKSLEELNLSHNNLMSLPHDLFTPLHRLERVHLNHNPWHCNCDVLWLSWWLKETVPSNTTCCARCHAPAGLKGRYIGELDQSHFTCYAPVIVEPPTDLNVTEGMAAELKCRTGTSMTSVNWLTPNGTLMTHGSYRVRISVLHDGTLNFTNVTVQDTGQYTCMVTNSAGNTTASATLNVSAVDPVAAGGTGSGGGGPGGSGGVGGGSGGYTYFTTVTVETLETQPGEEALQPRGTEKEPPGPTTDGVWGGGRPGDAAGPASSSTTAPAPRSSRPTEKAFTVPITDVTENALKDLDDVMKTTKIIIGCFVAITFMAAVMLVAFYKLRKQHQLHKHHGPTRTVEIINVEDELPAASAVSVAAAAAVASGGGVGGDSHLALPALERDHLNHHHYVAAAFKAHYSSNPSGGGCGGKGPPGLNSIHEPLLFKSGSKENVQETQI
UniProt Q8N9N7: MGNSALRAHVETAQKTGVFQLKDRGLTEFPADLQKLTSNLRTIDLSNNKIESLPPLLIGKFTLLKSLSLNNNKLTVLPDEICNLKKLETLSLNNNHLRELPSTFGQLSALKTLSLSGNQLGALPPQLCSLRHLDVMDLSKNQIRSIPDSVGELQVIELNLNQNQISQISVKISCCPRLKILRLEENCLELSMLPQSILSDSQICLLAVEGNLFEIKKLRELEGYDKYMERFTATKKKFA
UniProt P01130: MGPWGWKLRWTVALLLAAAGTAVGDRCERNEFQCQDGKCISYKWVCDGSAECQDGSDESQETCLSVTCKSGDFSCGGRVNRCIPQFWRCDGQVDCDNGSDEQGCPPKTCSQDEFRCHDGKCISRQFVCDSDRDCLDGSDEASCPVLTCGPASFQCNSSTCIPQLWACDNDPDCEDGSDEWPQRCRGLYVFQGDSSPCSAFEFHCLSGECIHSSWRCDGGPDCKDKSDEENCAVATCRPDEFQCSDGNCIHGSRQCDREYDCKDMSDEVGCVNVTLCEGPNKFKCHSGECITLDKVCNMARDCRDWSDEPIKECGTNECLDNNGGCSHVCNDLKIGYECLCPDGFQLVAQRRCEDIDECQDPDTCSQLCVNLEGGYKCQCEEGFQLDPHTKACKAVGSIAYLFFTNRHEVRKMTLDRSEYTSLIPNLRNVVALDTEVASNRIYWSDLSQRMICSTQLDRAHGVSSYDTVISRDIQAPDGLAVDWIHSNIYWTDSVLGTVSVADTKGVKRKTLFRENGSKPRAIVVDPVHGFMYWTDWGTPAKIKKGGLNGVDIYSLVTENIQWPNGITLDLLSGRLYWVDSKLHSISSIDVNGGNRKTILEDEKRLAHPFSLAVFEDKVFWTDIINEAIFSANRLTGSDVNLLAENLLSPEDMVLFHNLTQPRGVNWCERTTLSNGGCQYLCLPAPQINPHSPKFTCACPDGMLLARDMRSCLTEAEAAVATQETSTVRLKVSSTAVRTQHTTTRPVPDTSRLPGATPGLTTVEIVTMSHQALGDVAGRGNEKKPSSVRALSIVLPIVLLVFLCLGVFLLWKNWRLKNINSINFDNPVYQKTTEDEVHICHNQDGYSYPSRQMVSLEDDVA
UniProt Q9BRT6: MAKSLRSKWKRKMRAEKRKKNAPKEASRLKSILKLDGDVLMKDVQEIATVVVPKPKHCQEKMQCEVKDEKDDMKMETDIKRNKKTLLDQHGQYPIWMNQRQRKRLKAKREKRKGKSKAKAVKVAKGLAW
UniProt P07195, whole entry, looked up: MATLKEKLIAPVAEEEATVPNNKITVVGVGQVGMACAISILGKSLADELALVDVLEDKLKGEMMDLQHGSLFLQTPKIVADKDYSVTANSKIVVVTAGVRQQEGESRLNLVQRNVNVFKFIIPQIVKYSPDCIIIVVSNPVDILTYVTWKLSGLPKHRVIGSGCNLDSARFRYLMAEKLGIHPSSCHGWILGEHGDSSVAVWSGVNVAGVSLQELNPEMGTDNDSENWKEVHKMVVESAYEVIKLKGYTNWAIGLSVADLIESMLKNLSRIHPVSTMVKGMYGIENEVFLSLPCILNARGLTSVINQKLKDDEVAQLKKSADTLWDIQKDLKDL

Assays:
Experiment in all cases: log2 fold change, soluble protein after heating vs DMSO (PISA); higher = thermal stabilisation; K562 lysate, 10 uM; active = over 0.2 and 3.5 SD of the protein, either way, in both replicates (recomputed)
alvocidib = compound: CN1CC[C@H](c2c(O)cc(O)c3c(=O)cc(-c4ccccc4Cl)oc23)[C@H](O)C1 [alvocidib]
Summary of the method: (§1)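 Quantification was by TMTpro 16plex LC-MS/MS with equalised channel sums, applied to the supernatant after 21,000xg for 90 min. Samples were crude K562 extract at 1 mg/mL protein in PBS pH 7.4 with 1 mM MgCl2, treated with 10 μM compound for 30 min, heated for 3 min across 48°C-58°C, pooled and brought to 0.5% NP-40 at 4°C. Values are log-two fold changes in thermal stability relative to solvent controls, from duplicates.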

Tubastatin A = compound: CN1CCc2c(c3ccccc3n2Cc2ccc(C(=O)NO)cc2)C1 [Tubastatin A]
Summary of the method: as §1

[1] = compound: CNC(=O)C1=CC=CC=C1NC2=NC(=NC=C2Cl)NC3=C(C=C(C=C3)N4CCOCC4)OC
Summary of the method: as §1

defactinib = compound: CNC(=O)c1ccc(Nc2ncc(C(F)(F)F)c(NCc3nccnc3N(C)S(C)(=O)=O)n2)cc1 [defactinib]
Summary of the method: as §1

[2] = compound: CNc1nc(-c2ccc3c(N)n[nH]c3c2)cc(N2C[C@@H](C(=O)NC3CCCCC3)CC[C@H]2C)n1
Summary of the method: as §1

encorafenib = compound: COC(=O)N[C@@H](C)CNc1nccc(-c2cn(C(C)C)nc2-c2cc(Cl)cc(NS(C)(=O)=O)c2F)n1 [encorafenib]
Summary of the method: as §1

[3] = compound: COC(=O)[C@H](CCSC)NC(=O)C1=C(C=C(C=C1)NC[C@H](CS)N)C2=CC=CC=C2
Summary of the method: as §1

alisertib = compound: COc1cc(Nc2ncc3c(n2)-c2ccc(Cl)cc2C(c2c(F)cccc2OC)=NC3)ccc1C(=O)O [alisertib]
Summary of the method: as §1

[4] = compound: COc1cc2nc(-c3cc(F)ccc3O)nc(N[C@@H]3CNC[C@H]3C(C)(C)O)c2cc1OC
Summary of the method: as §1

gefitinib = compound: COc1cc2ncnc(Nc3ccc(F)c(Cl)c3)c2cc1OCCCN1CCOCC1 [gefitinib]
Summary of the method: as §1

lapatinib = compound: CS(=O)(=O)CCNCc1ccc(-c2ccc3ncnc(Nc4ccc(OCc5cccc(F)c5)c(Cl)c4)c3c2)o1 [lapatinib]
Summary of the method: as §1

pictilisib = compound: CS(=O)(=O)N1CCN(Cc2cc3nc(-c4cccc5[nH]ncc45)nc(N4CCOCC4)c3s2)CC1 [pictilisib]
Summary of the method: as §1

crizotinib = compound: C[C@@H](Oc1cc(-c2cnn(C3CCNCC3)c2)cnc1N)c1c(Cl)ccc(F)c1Cl [crizotinib]
Summary of the method: as §1

[5] = compound: C[C@H](C1=CC=C(C=C1)C(=O)NC2=C3C=CNC3=NC=C2)N
Summary of the method: as §1

duvelisib = compound: C[C@H](Nc1ncnc2nc[nH]c12)c1cc2cccc(Cl)c2c(=O)n1-c1ccccc1 [duvelisib]
Summary of the method: as §1

gandotinib = compound: Cc1cc(Nc2cc(CN3CCOCC3)c3nc(C)c(Cc4ccc(Cl)cc4F)n3n2)n[nH]1 [gandotinib]
Summary of the method: as §1

tozasertib = compound: Cc1cc(Nc2cc(N3CCN(C)CC3)nc(Sc3ccc(NC(=O)C4CC4)cc3)n2)n[nH]1 [tozasertib]
Summary of the method: as §1

doramapimod = compound: Cc1ccc(-n2nc(C(C)(C)C)cc2NC(=O)Nc2ccc(OCCN3CCOCC3)c3ccccc23)cc1 [doramapimod]
Summary of the method: as §1

bafetinib = compound: Cc1ccc(NC(=O)c2ccc(CN3CC[C@H](N(C)C)C3)c(C(F)(F)F)c2)cc1Nc1nccc(-c2cncnc2)n1 [bafetinib]
Summary of the method: as §1

[6] = compound: Cc1cccc(CC(=O)N2CCc3c2ccc(-c2cn(C)c4ncnc(N)c24)c3F)n1
Summary of the method: as §1

Measured: log2 fold change

LRPAP1 (UniProt P30533)
inactive: alvocidib 0.022 | Tubastatin A 0.011 | [1] -0.014 | defactinib -0.004 | [2] -0.054 | encorafenib 0.017 | [3] -0.077 | alisertib -0.019 | [4] 0.022 | gefitinib 0.011 | lapatinib 0.005 | pictilisib 0.039 | crizotinib 0.101 | [5] 0.066 | duvelisib 0.03 | gandotinib -0.019 | tozasertib 0.006 | doramapimod -0.029 | bafetinib 0.053 | [6] -0.055

LENG8 (UniProt Q96PV6)
inactive: alvocidib -0.058 | Tubastatin A 0.025 | [1] -0.089 | defactinib -0.14 | [2] 0.205 | encorafenib 0.034 | [3] 0.011 | alisertib -0.052 | [4] 0.028 | gefitinib 0.02 | lapatinib 0.103 | pictilisib -0.057 | crizotinib -0.027 | [5] -0.07 | duvelisib 0.157 | gandotinib -0.053 | tozasertib -0.054 | doramapimod 0.022 | bafetinib -0.089 | [6] 0.084

LRRC8A (UniProt Q8IWT6)
inactive: alvocidib -0.015 | Tubastatin A 0.005 | [1] 0.011 | defactinib -0.036 | [2] -0.058 | encorafenib 0.022 | [3] -0.007 | alisertib 0.042 | [4] 0.057 | gefitinib -0.044 | lapatinib -0.044 | pictilisib -0.001 | crizotinib 0.035 | [5] 0.079 | duvelisib 0.031 | gandotinib -0.046 | tozasertib -0.077 | doramapimod -0.051 | bafetinib -0.04 | [6] 0

LIN28B (UniProt Q6ZN17)
inactive: alvocidib -0.014 | Tubastatin A -0.046 | [1] -0.005 | defactinib -0.009 | [2] -0.021 | encorafenib -0.018 | [3] 0.011 | alisertib 0.001 | [4] -0.036 | gefitinib 0.008 | lapatinib 0.006 | pictilisib 0.024 | crizotinib 0.024 | [5] -0.031 | duvelisib -0.011 | gandotinib -0.005 | tozasertib 0.002 | doramapimod 0.027 | bafetinib 0.005 | [6] 0.04

LCLAT1 (UniProt Q6UWP7)
inactive: alvocidib -0.032 | Tubastatin A 0.026 | [1] -0.032 | defactinib 0.005 | [2] 0.049 | encorafenib 0.011 | [3] -0.035 | alisertib -0.012 | [4] 0.057 | gefitinib -0.003 | lapatinib -0.014 | pictilisib 0.014 | crizotinib -0.07 | [5] -0.038 | duvelisib 0.013 | gandotinib 0.01 | tozasertib 0.018 | doramapimod -0.003 | bafetinib 0.011 | [6] 0.063

LRBA, A0A494BZW2
inactive: alvocidib -0.014 | Tubastatin A 0.281 | [1] 0.079 | defactinib -0.044 | [2] -0.021 | encorafenib -0.056 | [3] 0.002 | alisertib 0.207 | [4] 0.036 | gefitinib 0.145 | lapatinib -0.072 | pictilisib -0.03 | crizotinib -0.38 | [5] -0.071 | duvelisib 0.014 | gandotinib 0 | tozasertib -0.065 | doramapimod 0.477 | bafetinib -0.035 | [6] -0.025

LIMS1 isoform 3 (UniProt P48059)
inactive: alvocidib -0.014 | Tubastatin A 0.034 | [1] 0.017 | defactinib 0.048 | [2] 0.02 | encorafenib 0.004 | [3] -0.118 | alisertib 0.011 | [4] -0.003 | gefitinib -0.097 | lapatinib 0.002 | pictilisib -0.019 | crizotinib 0.103 | [5] -0.045 | duvelisib -0.023 | gandotinib 0.008 | tozasertib -0.02 | doramapimod -0.068 | bafetinib -0.035 | [6] 0.038

LRBA (UniProt P50851)
inactive: alvocidib -0.01 | Tubastatin A -0.031 | [1] 0.003 | defactinib 0.004 | [2] -0.005 | encorafenib 0.027 | [3] -0.03 | alisertib 0.016 | [4] 0 | gefitinib -0.004 | lapatinib 0.003 | pictilisib -0.012 | crizotinib -0.025 | [5] -0.049 | duvelisib 0 | gandotinib 0.023 | tozasertib 0.005 | doramapimod 0.01 | bafetinib -0.052 | [6] 0.074

LSM2 (UniProt Q9Y333)
inactive: alvocidib 0.004 | Tubastatin A 0.05 | [1] 0.001 | defactinib -0.056 | [2] 0.014 | encorafenib -0.012 | [3] 0.003 | alisertib 0.003 | [4] 0.025 | gefitinib -0.028 | lapatinib -0.021 | pictilisib 0.009 | crizotinib -0.004 | [5] -0.082 | duvelisib 0.024 | gandotinib 0.006 | tozasertib 0.041 | doramapimod -0.026 | bafetinib -0.021 | [6] -0.009

LIG1 (UniProt P18858)
inactive: alvocidib -0.013 | Tubastatin A -0.002 | [1] -0.008 | defactinib -0.01 | [2] -0.026 | encorafenib 0.005 | [3] 0.016 | alisertib 0.009 | [4] 0.008 | gefitinib 0.02 | lapatinib -0.034 | pictilisib 0.017 | crizotinib -0.012 | [5] 0.065 | duvelisib -0.017 | gandotinib -0.061 | tozasertib -0.009 | doramapimod 0.003 | bafetinib -0.018 | [6] 0.008

LCP1 (UniProt P13796)
inactive: alvocidib -0.053 | Tubastatin A 0.056 | [1] -0.004 | defactinib -0.032 | [2] 0.014 | encorafenib -0.024 | [3] -0.021 | alisertib 0.012 | [4] 0.008 | gefitinib -0.031 | lapatinib 0.029 | pictilisib 0.023 | crizotinib 0.003 | [5] -0.032 | duvelisib 0 | gandotinib 0.03 | tozasertib 0.009 | doramapimod 0.01 | bafetinib 0.046 | [6] -0.007

2 entries picked at random from those above, as already listed:
LIG1 (UniProt P18858)
inactive: alvocidib -0.013 | Tubastatin A -0.002 | [1] -0.008 | defactinib -0.01 | [2] -0.026 | encorafenib 0.005 | [3] 0.016 | alisertib 0.009 | [4] 0.008 | gefitinib 0.02 | lapatinib -0.034 | pictilisib 0.017 | crizotinib -0.012 | [5] 0.065 | duvelisib -0.017 | gandotinib -0.061 | tozasertib -0.009 | doramapimod 0.003 | bafetinib -0.018 | [6] 0.008

LSM2 (UniProt Q9Y333)
inactive: alvocidib 0.004 | Tubastatin A 0.05 | [1] 0.001 | defactinib -0.056 | [2] 0.014 | encorafenib -0.012 | [3] 0.003 | alisertib 0.003 | [4] 0.025 | gefitinib -0.028 | lapatinib -0.021 | pictilisib 0.009 | crizotinib -0.004 | [5] -0.082 | duvelisib 0.024 | gandotinib 0.006 | tozasertib 0.041 | doramapimod -0.026 | bafetinib -0.021 | [6] -0.009

Further results:

LRRC4B (UniProt Q9NT99)
inactive: alvocidib 0.039 | Tubastatin A -0.049 | [1] -0.074 | defactinib 0.04 | [2] -0.294 | encorafenib 0.027 | [3] -0.015 | alisertib 0.019 | [4] 0 | gefitinib 0.082 | lapatinib -0.106 | pictilisib 0.135 | crizotinib -0.051 | [5] 0.006 | duvelisib 0.063 | gandotinib -0.019 | tozasertib 0.024 | doramapimod -0.093 | bafetinib 0.063 | [6] -0.046

LRRC57 (UniProt Q8N9N7)
inactive: alvocidib -0.029 | Tubastatin A 0.032 | [1] 0.014 | defactinib -0.027 | [2] 0.025 | encorafenib 0.066 | [3] -0.063 | alisertib -0.007 | [4] 0.018 | gefitinib 0.019 | lapatinib 0.007 | pictilisib -0.002 | crizotinib 0.034 | [5] -0.016 | duvelisib -0.007 | gandotinib 0.037 | tozasertib 0.01 | doramapimod 0.053 | bafetinib 0.028 | [6] 0.057

LDLR (UniProt P01130)
inactive: alvocidib -0.041 | Tubastatin A 0.142 | [1] 0 | defactinib 0.059 | [2] 0.142 | encorafenib 0.03 | [3] -0.022 | alisertib -0.058 | [4] -0.198 | gefitinib -0.03 | lapatinib -0.018 | pictilisib -0.01 | crizotinib 0.006 | [5] 0.05 | duvelisib -0.005 | gandotinib -0.034 | tozasertib -0.009 | doramapimod -0.017 | bafetinib 0.08 | [6] -0.013

LLPH (UniProt Q9BRT6)
inactive: alvocidib 0.133 | Tubastatin A -0.007 | [1] -0.059 | defactinib 0.035 | [2] 0.019 | encorafenib 0.038 | [3] -0.116 | alisertib -0.061 | [4] -0.005 | gefitinib -0.055 | lapatinib -0.049 | pictilisib 0.093 | crizotinib 0.114 | [5] 0.198 | duvelisib 0.06 | gandotinib -0.094 | tozasertib 0.103 | doramapimod -0.004 | bafetinib 0.088 | [6] -0.109

LDHB (UniProt P07195)
inactive: alvocidib 0.021 | Tubastatin A 0.04 | [1] 0.002 | defactinib -0.027 | [2] 0.025 | encorafenib -0.05 | [3] -0.04 | alisertib 0.019 | [4] 0.015 | gefitinib -0.03 | lapatinib -0.016 | pictilisib -0.001 | crizotinib 0.016 | [5] -0.005 | duvelisib 0.003 | gandotinib 0.049 | tozasertib -0.031 | doramapimod -0.04 | bafetinib 0.02 | [6] -0.02
